In the assay the target is 3xFlag-tagged DTL (Denticleless E3 ubiquitin protein ligase homolog) (human) (UniProt Q9NZJ0). The assay is described as follows: affinity purification with mass spectrometry; lysate of Huh-7 cells stably expressing 3xFlag-DTL, IP with anti-FLAG antibody, elution, tryptic digestion, LC-MS/MS; weak lysis buffer, antibody overnight at 4 °C, Protein A + G beads 4 h at 4 °C.

Sequences of proteins named here, by UniProt entry; tags and fusion partners are left off.
UniProt Q9NZJ0: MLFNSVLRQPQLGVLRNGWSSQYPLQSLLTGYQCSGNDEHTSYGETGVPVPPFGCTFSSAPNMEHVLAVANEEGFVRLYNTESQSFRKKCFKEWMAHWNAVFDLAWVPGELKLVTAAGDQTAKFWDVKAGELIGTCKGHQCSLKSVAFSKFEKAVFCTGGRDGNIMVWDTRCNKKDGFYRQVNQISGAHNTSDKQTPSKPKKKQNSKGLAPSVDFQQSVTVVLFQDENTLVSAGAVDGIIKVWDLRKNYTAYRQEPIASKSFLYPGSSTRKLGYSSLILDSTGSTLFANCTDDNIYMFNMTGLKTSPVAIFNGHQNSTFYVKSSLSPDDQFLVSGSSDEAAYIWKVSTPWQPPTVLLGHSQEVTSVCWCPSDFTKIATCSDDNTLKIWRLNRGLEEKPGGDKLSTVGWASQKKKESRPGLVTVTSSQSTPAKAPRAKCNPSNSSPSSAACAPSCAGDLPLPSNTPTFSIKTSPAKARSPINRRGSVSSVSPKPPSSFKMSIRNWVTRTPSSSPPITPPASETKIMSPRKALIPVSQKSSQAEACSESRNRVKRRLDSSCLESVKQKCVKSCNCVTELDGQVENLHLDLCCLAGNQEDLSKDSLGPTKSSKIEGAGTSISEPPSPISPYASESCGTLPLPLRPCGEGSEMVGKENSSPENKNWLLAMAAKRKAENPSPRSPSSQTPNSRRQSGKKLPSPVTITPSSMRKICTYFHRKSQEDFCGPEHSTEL
UniProt Q9NWH9: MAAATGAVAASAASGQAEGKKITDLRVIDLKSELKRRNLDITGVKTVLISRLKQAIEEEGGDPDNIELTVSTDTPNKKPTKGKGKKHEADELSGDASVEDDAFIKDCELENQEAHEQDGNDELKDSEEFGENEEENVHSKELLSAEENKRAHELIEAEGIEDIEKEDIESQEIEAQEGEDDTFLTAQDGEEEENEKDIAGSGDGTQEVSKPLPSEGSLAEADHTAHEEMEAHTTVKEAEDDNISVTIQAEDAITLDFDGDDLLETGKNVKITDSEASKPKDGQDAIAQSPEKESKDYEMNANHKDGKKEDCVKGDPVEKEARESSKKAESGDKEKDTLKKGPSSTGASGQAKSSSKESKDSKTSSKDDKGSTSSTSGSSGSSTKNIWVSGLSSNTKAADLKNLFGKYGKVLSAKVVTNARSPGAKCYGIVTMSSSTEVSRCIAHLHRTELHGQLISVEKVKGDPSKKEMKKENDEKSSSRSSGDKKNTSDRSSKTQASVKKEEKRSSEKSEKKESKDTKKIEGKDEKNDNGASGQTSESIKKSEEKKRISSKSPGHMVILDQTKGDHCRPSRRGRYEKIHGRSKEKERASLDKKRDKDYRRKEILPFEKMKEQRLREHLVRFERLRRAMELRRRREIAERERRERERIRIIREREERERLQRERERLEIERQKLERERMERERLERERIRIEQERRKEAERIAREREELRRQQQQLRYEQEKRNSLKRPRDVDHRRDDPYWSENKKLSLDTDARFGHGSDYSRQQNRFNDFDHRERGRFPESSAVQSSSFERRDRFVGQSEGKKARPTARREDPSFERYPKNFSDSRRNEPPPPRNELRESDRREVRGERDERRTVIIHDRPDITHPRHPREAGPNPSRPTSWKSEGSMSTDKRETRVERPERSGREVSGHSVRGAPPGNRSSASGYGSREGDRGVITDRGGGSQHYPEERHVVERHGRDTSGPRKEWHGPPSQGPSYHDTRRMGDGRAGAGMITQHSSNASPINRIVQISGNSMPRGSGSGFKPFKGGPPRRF

No constants are given. Whether binding was seen depends on the method and setting. Binding seen in cells or lysates may run through a third protein. These calls come from enrichment with a bait or labelling near it, and not all partners need be listed.

On to “SAFB-like transcription modulator (SLTM), endogenous (from UniProt Q9NWH9 1-1034)”, for which the binding entry was “binds”.

Source of the values: paper PMC11464529.
